Test results published in PubChem BioAssay AID264 (DTP/NCI, 2004).
The list is a part of this screen's results and no random one: it is rich in T/C values a quarter to a half above the control, in often repeated tests (any T/C) and in doses without a T/C. Further doses and runs are listed elsewhere. T/C is the treated group as % of the vehicle group. Schedules are NCI's codes, taken here to give the interval after Q, in days (D) or hours (H), and the number of doses after X. Some T/C values are followed by the survivors on the day toxicity was checked, most often the fifth; without a count, all were alive then. Some entries were tested several times; the results are listed from low to high. Some doses have a count of surviving animals in place of a T/C: the source files T/C as zero there, which appears to mark a toxic dose or a test without result, not a measured value. Counts of survivors are from the toxicity check (mostly the fifth day) where no day follows; animals may have died later.

System: nude mice, LX-1 lung xenograft intrarenal, tumor weight T/C
Assay: NCI In Vivo Anticancer Drug Screen. Data for tumor model Human Lung LX-1 Xenograft (intrarenal inoculation) in NU/NU Swiss (nude) mice
Conditions: T/C endpoint: mean tumor weight change, higher T/C = larger tumour; for T/C: evaluated on day 11
Summary of the method: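 Antitumor effect is expressed as a ratio: the mean tumor measurement of the drug-treated group relative to that of the vehicle-dosed control group.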

[1] = dose: 50.0 mg/kg/injection, schedule: Q01DX010 (sc), vehicle: saline with Tween-80
[2] = dose: 100.0 mg/kg/injection, schedule: Q01DX010 (sc), vehicle: saline with Tween-80
[3] = dose: 200.0 mg/kg/injection, schedule: Q01DX010 (sc), vehicle: saline with Tween-80
[4] = dose: 300.0 mg/kg/injection, schedule: Q04DX003 (sc), vehicle: saline with Tween-80
[5] = dose: 400.0 mg/kg/injection, schedule: Q01DX010 (sc), vehicle: saline with Tween-80
[6] = dose: 600.0 mg/kg/injection, schedule: Q04DX003 (sc), vehicle: saline with Tween-80
[7] = dose: 1200.0 mg/kg/injection, schedule: Q04DX003 (sc), vehicle: saline with Tween-80
[8] = dose: 100.0 mg/kg/injection, schedule: Q01DX010 (sc), vehicle: Klucel (hydroxypropylcellulose) (HPC)
[9] = dose: 200.0 mg/kg/injection, schedule: Q01DX010 (sc), vehicle: Klucel (hydroxypropylcellulose) (HPC)
[10] = dose: 100.0 mg/kg/injection, schedule: Q01DX010 (sc), vehicle: saline
[11] = dose: 200.0 mg/kg/injection, schedule: Q04DX003 (sc), vehicle: Klucel (hydroxypropylcellulose) (HPC)

CCN(CC)CCCC(C)Nc1c2ccc(Cl)cc2nc2ccc(OC)cc12 (centres undefined)
T/C [1]: 37, 56, 71 [2 of 2 alive on day 11], 84, 94 % of control
T/C [2]: 49, 50 [5 of 6 alive on day 11], 55, 76, 85 % of control
T/C (dose: 150.0 mg/kg/injection, schedule: Q04DX003 (sc), vehicle: saline with Tween-80): 125 % of control
T/C [3]: 6 [2 of 3 alive on day 11], 8, 39 % of control [5 of 6 alive on day 11]
survivor count [3]: 1 of 6 on day 11
survivor count [4]: 1 of 6 on day 11
survivor count [5]: 0 of 3 on day 11, 0 of 6 on day 11, 1 of 6 on day 11
survivor count [6]: 0 of 6 on day 11 and 1 of 6 on day 11
survivor count [7]: 0 of 6 on day 11

CC(=O)O[C@H]1C(=O)[C@@]2(C)[C@H]([C@H](OC(=O)c3ccccc3)[C@]3(O)C[C@H](OC(=O)[C@H](O)[C@@H](NC(=O)c4ccccc4)c4ccccc4)C(C)=C1C3(C)C)[C@]1(OC(C)=O)CO[C@@H]1C[C@@H]2O
T/C (dose: 50.0 mg/kg/injection, schedule: Q01DX010 (sc), vehicle: Klucel (hydroxypropylcellulose) (HPC)): 8 [2 of 3 alive on day 11], 38, 51 % of control [2 of 3 alive on day 11]
T/C [8]: 28 and 31 % of control
survivor count [8]: 0 of 1 on day 11 and 0 of 3 on day 11
T/C [9]: 13 [5 of 6 alive on day 11] and 27 % of control [2 of 3 alive on day 11]
survivor count [9]: 1 of 3 on day 11
survivor count (dose: 400.0 mg/kg/injection, schedule: Q01DX010 (sc), vehicle: Klucel (hydroxypropylcellulose) (HPC)): 0 of 3 on day 11 and 1 of 3 on day 11

Nc1nc(N)c2c(Cl)c(CNc3ccc(Cl)c(Cl)c3)ccc2n1
survivor count [1]: 0 of 6 on day 11
survivor count [2]: 0 of 6 on day 11
survivor count [3]: 0 of 6 on day 11

COc1cc2c(c(OC)c1OC)-c1ccc(OC)c(=O)cc1[C@@H](NC(=O)CCl)CC2
survivor count (dose: 10.0 mg/kg/injection, schedule: Q04DX003 (sc), vehicle: saline with Tween-80): 0 of 6 on day 11

NC(=O)CC(N)C(=O)O (centres undefined)
survivor count (dose: 6400.0 mg/kg/injection, schedule: Q04DX003 (sc), vehicle: saline): 3 of 6 on day 11

CC1=C(/C=C/C(C)=C/C=C/C(C)=C/C=O)C(C)(C)CCC1
survivor count (dose: 2400.0 mg/kg/injection, schedule: Q04DX003 (sc), vehicle: saline with Tween-80): 3 of 6 on day 11

O=P1(N(CCCl)CCCl)NCCCO1 (centres undefined)
T/C (dose: 12.5 mg/kg/injection, schedule: Q01DX010 (sc), vehicle: saline): 54, 63, 73, 94 % of control [2 of 2 alive on day 11]
T/C (dose: 25.0 mg/kg/injection, schedule: Q01DX010 (sc), vehicle: saline): 42 [2 of 2 alive on day 11], 45, 49, 70 % of control
survivor count (dose: 50.0 mg/kg/injection, schedule: Q01DX010 (ip), vehicle: saline): 0 of 3 on day 11
T/C (dose: 50.0 mg/kg/injection, schedule: Q01DX010 (sc), vehicle: saline): 15 [2 of 3 alive on day 11], 26, 36, 41 % of control
survivor count (dose: 83.33 mg/kg/injection, schedule: Q04DX003 (ip), vehicle: saline): 0 of 3 on day 11
T/C [10]: 13 and 23 % of control [2 of 3 alive on day 11]
survivor count [10]: 0 of 3 on day 11
survivor count (dose: 166.6 mg/kg/injection, schedule: Q04DX003 (sc), vehicle: saline): 0 of 3 on day 11
survivor count (dose: 166.65 mg/kg/injection, schedule: Q04DX003 (ip), vehicle: saline): 0 of 3 on day 11
survivor count (dose: 200.0 mg/kg/injection, schedule: Q04DX003 (sc), vehicle: suspension in saline): 0 of 6 on day 11
survivor count (dose: 333.3 mg/kg/injection, schedule: Q04DX003 (sc), vehicle: saline): 0 of 3 on day 11
survivor count (dose: 400.0 mg/kg/injection, schedule: Q04DX003 (sc), vehicle: suspension in saline): 0 of 6 on day 11

O=C1C=CC(n2cc(F)c(=O)[nH]c2=O)O1 (centres undefined)
survivor count [11]: 0 of 6 on day 11

CC(=O)OCC1OC([S-])C(OC(C)=O)C(OC(C)=O)C1OC(C)=O.CC[PH+](CC)CC.CC[PH+](CC)CC.[Au].[Au] (centres undefined)
survivor count (dose: 25.0 mg/kg/injection, schedule: Q04DX003 (sc), vehicle: Klucel (hydroxypropylcellulose) (HPC)): 0 of 6 on day 11 and 2 of 6 on day 11
survivor count (dose: 50.0 mg/kg/injection, schedule: Q04DX003 (sc), vehicle: Klucel (hydroxypropylcellulose) (HPC)): 0 of 6 on day 11
survivor count (dose: 100.0 mg/kg/injection, schedule: Q04DX003 (sc), vehicle: Klucel (hydroxypropylcellulose) (HPC)): 0 of 6 on day 11
survivor count [11]: 0 of 6 on day 11

COC(=O)Nc1ccc(Cc2ccc(NC(=O)OC)cc2)cc1
T/C [2]: 131 % of control
T/C [3]: 128 % of control
T/C [5]: 135 % of control

C=CS(C=C)=NS(=O)(=O)c1ccc(C)cc1
survivor count (dose: 150.0 mg/kg/injection, schedule: Q04DX003 (sc), vehicle: Klucel (hydroxypropylcellulose) (HPC)): 0 of 6 on day 11

COc1cccc2c1C(=N)c1c(O)c3c(c(O)c1C2=O)C[C@@](O)(C(C)=O)C[C@@H]3OC1CC(N)C(O)C(C)O1 (some centres undefined)
survivor count (dose: 192.0 mg/kg/injection, schedule: Q04DX003 (sc), vehicle: water): 0 of 3 on day 11

CC(=O)OCc1cc(=O)n(C)c2c3c4c(cc12)c(C)cc(=O)n4CO3
survivor count (dose: 25.0 mg/kg/injection, schedule: Q01DX010 (sc), vehicle: Klucel (hydroxypropylcellulose) (HPC)): 2 of 4 on day 11

C[C@H](CCC[C@H](C)OS(=O)(=O)c1ccccc1)OS(=O)(=O)c1ccccc1
survivor count [6]: 1 of 6 on day 11
survivor count [7]: 3 of 6 on day 11

C=CCNc1ccc(C)cc1
T/C [8]: 143 % of control [2 of 2 alive on day 11]

CCCCCCCCCCCCSC1=C(Cl)C(=O)C(OC)=C(OC)C1=O
survivor count [4]: 3 of 6 on day 11
survivor count [6]: 3 of 6 on day 11

C[C@]12CC[C@H](O)CC1=CC[C@@H]1[C@@H]2CC[C@]2(C)C(=O)CC[C@@H]12
T/C [6]: 141 % of control

Cc1cc(=O)n2c3c(c4c(cc13)c(CN(C)C)cc(=O)n4C)OC2
survivor count [6]: 1 of 6 on day 11

Nc1n[n+](-c2ccc(Cl)cc2)no1
T/C (dose: 50.0 mg/kg/injection, schedule: Q04DX003 (sc), vehicle: water): 135 % of control
survivor count (dose: 200.0 mg/kg/injection, schedule: Q04DX003 (sc), vehicle: water): 0 of 6 on day 11

C[C@@](O)(/C=C/[C@H]1CC=CC(=O)O1)[C@@H](C[C@@H](O)\C=C/C=C\C=C\CO)OP(=O)(O)O
T/C (dose: 3.75 mg/kg/injection, schedule: Q04DX003 (sc), vehicle: other): 125 % of control
survivor count (dose: 30.0 mg/kg/injection, schedule: Q04DX003 (sc), vehicle: other): 0 of 6 on day 11
survivor count (dose: 37.5 mg/kg/injection, schedule: Q04DX003 (sc), vehicle: other): 2 of 6 on day 11
survivor count (dose: 75.0 mg/kg/injection, schedule: Q04DX003 (sc), vehicle: other): 0 of 6 on day 11
survivor count (dose: 150.0 mg/kg/injection, schedule: Q04DX003 (sc), vehicle: other): 0 of 6 on day 11
survivor count (dose: 300.0 mg/kg/injection, schedule: Q04DX003 (sc), vehicle: other): 0 of 6 on day 11
